Laboratory results as given in the supplement of paper PMC10849652.
Some of the results follow.

The chains behind the UniProt entries cited, without tags or fusion partners. Where a name states a change or a piece, a line headed by the entry shows the natural chain unless it says otherwise.
UniProt P51668: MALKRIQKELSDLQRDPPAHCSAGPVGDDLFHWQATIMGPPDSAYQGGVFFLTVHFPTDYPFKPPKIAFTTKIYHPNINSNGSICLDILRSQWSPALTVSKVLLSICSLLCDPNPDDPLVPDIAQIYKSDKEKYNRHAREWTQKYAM
UniProt Q8IWV7: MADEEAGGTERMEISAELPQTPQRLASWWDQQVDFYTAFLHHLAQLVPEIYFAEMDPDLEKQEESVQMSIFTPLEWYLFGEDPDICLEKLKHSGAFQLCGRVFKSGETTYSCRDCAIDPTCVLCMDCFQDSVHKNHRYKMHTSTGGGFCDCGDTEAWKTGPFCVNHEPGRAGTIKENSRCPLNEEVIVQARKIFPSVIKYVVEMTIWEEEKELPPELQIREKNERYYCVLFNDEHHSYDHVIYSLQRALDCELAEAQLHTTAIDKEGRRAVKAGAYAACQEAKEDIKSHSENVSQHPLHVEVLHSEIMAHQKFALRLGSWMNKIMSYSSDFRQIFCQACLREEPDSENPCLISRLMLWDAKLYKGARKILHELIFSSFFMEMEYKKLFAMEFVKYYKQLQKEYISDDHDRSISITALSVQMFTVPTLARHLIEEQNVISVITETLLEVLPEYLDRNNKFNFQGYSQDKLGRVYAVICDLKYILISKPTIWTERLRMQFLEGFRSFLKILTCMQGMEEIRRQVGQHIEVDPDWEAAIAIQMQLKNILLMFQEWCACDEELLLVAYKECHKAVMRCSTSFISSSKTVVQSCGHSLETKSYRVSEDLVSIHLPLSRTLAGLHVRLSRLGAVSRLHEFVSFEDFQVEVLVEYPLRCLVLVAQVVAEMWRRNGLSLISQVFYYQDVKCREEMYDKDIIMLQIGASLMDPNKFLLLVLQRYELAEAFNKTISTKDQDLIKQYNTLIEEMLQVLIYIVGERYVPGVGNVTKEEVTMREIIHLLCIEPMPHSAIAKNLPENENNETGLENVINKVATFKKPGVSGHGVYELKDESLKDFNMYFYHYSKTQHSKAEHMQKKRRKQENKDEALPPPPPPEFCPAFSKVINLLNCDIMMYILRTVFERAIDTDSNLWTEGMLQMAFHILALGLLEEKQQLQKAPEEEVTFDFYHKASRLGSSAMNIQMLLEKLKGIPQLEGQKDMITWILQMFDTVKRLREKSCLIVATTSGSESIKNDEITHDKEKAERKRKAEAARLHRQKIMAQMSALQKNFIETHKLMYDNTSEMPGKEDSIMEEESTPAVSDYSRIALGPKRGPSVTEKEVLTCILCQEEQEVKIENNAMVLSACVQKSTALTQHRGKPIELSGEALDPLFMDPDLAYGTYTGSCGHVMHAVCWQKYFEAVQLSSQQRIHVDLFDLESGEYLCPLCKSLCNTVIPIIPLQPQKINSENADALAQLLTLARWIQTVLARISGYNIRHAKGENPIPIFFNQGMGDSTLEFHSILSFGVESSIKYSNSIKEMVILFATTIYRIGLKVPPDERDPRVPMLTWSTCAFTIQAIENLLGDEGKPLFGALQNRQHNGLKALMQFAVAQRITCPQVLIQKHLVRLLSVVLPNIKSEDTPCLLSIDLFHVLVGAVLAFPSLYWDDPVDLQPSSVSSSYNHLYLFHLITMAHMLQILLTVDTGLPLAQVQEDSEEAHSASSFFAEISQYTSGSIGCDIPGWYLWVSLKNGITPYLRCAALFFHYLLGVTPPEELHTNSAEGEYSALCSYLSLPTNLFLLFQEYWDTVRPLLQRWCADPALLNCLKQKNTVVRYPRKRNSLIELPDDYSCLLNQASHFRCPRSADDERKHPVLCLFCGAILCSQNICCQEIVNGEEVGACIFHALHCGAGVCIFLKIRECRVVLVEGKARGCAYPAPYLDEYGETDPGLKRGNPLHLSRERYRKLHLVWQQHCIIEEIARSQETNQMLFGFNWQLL
UniProt P68363, whole entry, looked up: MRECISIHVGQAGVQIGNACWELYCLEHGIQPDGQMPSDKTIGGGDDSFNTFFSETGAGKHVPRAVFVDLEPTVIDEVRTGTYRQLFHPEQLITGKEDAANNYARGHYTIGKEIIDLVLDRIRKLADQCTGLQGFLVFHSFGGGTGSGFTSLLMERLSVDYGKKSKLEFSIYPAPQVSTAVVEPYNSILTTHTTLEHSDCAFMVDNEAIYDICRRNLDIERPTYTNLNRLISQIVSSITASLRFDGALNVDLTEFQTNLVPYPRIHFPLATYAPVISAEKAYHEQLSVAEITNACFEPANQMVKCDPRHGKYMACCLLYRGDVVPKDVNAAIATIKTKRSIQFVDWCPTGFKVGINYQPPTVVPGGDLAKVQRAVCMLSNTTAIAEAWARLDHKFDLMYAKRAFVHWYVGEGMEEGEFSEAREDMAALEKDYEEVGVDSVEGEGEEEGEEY
UniProt Q16881, whole entry, looked up: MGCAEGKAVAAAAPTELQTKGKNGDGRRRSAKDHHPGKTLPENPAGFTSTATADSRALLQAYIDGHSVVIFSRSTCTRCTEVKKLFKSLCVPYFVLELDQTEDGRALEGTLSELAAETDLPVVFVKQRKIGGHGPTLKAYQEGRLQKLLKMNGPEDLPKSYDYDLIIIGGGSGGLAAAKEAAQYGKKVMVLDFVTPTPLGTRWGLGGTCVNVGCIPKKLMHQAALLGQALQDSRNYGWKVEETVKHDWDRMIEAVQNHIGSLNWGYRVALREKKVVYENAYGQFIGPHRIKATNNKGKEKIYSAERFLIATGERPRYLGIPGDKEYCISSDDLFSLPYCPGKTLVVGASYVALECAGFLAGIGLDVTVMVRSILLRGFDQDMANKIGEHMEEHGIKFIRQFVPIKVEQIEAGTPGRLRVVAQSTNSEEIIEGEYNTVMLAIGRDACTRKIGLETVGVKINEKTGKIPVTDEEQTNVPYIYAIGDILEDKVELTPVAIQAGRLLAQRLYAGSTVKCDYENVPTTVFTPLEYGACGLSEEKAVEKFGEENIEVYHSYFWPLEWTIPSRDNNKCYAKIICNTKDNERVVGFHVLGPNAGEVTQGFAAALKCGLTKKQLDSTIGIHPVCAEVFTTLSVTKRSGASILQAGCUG
UniProt Q6ZT12: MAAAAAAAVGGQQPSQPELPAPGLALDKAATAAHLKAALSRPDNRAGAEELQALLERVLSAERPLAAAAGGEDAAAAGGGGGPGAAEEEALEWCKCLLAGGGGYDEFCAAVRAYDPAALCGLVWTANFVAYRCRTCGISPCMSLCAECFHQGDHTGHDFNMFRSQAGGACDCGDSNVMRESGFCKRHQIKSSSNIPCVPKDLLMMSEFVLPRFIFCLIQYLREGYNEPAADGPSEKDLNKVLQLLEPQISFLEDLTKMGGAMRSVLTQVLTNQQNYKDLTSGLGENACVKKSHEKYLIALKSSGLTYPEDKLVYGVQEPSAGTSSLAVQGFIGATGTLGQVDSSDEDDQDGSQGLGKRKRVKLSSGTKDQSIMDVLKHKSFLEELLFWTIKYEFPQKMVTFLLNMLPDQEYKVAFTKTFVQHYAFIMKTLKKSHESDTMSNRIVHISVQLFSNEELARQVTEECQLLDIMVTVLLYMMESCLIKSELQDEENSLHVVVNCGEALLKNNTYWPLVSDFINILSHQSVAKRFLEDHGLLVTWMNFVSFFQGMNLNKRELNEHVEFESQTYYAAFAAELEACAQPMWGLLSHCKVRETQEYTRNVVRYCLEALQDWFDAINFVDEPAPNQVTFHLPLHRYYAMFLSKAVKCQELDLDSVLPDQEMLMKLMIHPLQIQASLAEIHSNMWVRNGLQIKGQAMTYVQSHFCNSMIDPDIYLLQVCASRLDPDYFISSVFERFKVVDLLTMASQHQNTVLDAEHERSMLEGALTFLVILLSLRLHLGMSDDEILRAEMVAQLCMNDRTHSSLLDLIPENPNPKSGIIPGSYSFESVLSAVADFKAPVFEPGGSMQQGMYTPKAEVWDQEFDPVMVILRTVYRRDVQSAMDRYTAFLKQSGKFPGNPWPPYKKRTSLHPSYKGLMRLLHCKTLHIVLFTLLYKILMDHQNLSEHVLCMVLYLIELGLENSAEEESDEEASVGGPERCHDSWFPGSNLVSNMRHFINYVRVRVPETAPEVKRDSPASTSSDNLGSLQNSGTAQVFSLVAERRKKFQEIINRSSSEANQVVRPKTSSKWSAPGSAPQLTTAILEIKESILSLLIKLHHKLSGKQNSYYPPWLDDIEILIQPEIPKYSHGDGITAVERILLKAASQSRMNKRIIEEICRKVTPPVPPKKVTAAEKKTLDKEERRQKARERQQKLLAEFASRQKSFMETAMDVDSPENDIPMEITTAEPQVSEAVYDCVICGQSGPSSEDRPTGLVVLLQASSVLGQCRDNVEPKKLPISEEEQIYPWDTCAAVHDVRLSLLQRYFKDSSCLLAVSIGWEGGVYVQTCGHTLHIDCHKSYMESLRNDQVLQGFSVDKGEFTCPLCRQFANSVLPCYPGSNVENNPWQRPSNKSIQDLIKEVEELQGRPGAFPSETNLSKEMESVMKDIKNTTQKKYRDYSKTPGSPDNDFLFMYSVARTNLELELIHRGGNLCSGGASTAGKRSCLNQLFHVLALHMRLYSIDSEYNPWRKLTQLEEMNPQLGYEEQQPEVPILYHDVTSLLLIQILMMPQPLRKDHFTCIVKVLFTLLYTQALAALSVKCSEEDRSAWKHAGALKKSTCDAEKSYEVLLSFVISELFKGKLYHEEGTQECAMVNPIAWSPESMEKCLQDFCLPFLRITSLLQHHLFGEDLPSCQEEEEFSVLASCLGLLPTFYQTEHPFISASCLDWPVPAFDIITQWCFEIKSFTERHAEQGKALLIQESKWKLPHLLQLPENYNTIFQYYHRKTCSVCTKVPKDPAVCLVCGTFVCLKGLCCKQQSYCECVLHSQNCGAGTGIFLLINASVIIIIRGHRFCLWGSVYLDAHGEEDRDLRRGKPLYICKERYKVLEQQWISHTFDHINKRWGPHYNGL
UniProt P10599: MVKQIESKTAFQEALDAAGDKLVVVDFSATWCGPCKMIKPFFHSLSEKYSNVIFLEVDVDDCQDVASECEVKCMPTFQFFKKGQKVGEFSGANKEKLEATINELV
UniProt Q9BTX7: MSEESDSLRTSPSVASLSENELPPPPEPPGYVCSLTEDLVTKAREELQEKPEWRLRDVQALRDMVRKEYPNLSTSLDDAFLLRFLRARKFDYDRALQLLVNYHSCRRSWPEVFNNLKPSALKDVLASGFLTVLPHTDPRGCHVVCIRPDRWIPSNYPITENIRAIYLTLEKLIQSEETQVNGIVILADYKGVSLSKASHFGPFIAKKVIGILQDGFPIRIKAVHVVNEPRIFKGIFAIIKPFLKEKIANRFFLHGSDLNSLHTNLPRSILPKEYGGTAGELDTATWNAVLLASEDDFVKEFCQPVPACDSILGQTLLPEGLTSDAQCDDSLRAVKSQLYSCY
UniProt Q12792, whole entry, looked up: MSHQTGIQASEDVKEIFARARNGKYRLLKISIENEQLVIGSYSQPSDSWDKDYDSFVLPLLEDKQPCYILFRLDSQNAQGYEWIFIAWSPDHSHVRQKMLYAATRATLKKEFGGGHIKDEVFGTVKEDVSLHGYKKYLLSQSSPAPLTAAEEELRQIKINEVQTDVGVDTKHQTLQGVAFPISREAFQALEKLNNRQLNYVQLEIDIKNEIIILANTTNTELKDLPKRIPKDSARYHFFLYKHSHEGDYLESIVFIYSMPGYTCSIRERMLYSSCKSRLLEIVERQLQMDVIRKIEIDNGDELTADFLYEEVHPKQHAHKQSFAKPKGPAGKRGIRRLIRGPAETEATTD
UniProt P15374: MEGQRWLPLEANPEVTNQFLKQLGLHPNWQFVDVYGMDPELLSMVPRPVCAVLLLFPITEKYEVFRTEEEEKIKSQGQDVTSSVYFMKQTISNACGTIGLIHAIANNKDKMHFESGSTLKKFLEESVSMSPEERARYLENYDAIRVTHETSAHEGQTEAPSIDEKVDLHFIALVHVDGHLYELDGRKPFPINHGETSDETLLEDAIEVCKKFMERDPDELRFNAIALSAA
UniProt P51965: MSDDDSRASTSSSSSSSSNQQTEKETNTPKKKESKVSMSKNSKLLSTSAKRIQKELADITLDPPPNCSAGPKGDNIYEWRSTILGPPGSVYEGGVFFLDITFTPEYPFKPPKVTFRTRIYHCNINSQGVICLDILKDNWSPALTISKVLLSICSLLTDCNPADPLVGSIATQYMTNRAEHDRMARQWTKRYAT
UniProt Q13509, whole entry, looked up: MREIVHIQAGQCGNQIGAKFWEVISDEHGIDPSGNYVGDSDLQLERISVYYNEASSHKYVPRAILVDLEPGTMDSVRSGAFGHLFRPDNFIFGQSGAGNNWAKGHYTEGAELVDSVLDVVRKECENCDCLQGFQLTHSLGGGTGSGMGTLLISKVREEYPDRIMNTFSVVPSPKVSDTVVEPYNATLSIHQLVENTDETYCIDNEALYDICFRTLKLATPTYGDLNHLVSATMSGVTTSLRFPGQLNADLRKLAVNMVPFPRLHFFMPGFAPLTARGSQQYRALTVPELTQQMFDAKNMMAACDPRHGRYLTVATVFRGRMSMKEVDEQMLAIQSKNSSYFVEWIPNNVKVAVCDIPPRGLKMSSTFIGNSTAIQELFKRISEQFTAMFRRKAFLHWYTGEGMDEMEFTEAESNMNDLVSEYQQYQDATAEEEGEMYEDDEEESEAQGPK

Experiments:
Experiment in all cases: log2 fold change, soluble protein after heating vs DMSO (PISA); higher = thermal stabilisation; K562 lysate, 10 uM; active = over 0.2 and 3.5 SD of the protein, either way, in both replicates (recomputed)
[1] = compound: NCC(=O)Nc1ccc(-n2nc(C(F)(F)F)cc2-c2ccc3c(ccc4ccccc43)c2)cc1
Procedure, shortened: (§1)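 Following dounce homogenisation of K562 pellets in PBS pH 7.4 with 1 mM MgCl2, crude extract at 1 mg/mL protein was incubated for 30 min with 10 μM compound. Aliquots were then heated for 3 min over 48°C-58°C and pooled, NP-40 was added to 0.5% at 4°C, and soluble protein was recovered as the supernatant at 21,000xg for 90 min. Channel-sum-equalised TMTpro 16plex LC-MS/MS quantified this protein. Each value, from duplicates, is a log-two fold change in thermal stability relative to solvent controls.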

[2] = compound: O=C(CCCCCCC(=O)Nc1ccccc1)NO [vorinostat]
Procedure, shortened: as §1

[3] = compound: O=C(O)c1ccc2c(c1)nc(Nc1cccc(Cl)c1)c1ccncc12 [silmitasertib]
Procedure, shortened: as §1

[4] = compound: O=C1NC(=O)C(c2cnc3ccccn23)=C1c1cn2c3c(cc(F)cc13)CN(C(=O)N1CCCCC1)CC2
Procedure, shortened: as §1

[5] = compound: c1cn2cc(-c3ccc4cn[nH]c4c3)nc(Nc3ccc(N4CCOCC4)cc3)c2n1 [entospletinib]
Procedure, shortened: as §1

Measured: log2 fold change

UBE2D1 (UniProt P51668)
inactive: [1] -0.01 | [2] 0.088 | [3] -0.101 | [4] -0.001 | [5] 0.056

UBR2 isoform 4 (UniProt Q8IWV8)
inactive: [1] -0.028 | [2] -0.178 | [3] 0.008 | [4] -0.006 | [5] 0.005

UBE2Q1 (UniProt Q7Z7E8)
inactive: [1] 0.032 | [2] -0.058 | [3] 0.043 | [4] 0.009 | [5] -0.002

UBAP2 (UniProt Q5T6F2)
inactive: [1] 0.031 | [2] 0.03 | [3] -0.007 | [4] 0 | [5] -0.013

TXLNA (UniProt P40222)
inactive: [1] 0.006 | [2] 0.054 | [3] -0.01 | [4] -0.008 | [5] 0.007

UBXN6 (UniProt Q9BZV1)
active: [2] -0.28
inactive: [1] 0.04 | [3] 0.018 | [4] -0.026 | [5] -0.009

U2AF1 isoform 2 (UniProt Q01081)
inactive: [1] 0.003 | [2] -0.178 | [3] 0.01 | [4] 0.042 | [5] 0.039

UBR1 (UniProt Q8IWV7)
inactive: [1] -0.04 | [3] 0.025 | [4] 0.008 | [5] -0.024
active: [2] -0.239

TUBA1B (UniProt P68363)
active: [2] -0.66
inactive: [1] -0.005 | [3] 0.018 | [4] 0.026 | [5] 0.01

UBXN4 (UniProt Q92575)
inactive: [1] 0.036 | [2] -0.124 | [3] 0.024 | [4] -0.021 | [5] -0.117

UBAP1 (UniProt Q9NZ09)
inactive: [1] -0.038 | [2] -0.094 | [3] -0.045 | [4] 0.024 | [5] -0.02

TXNRD1 (UniProt Q16881)
inactive: [1] 0.023 | [2] 0.101 | [3] 0.003 | [4] -0.013 | [5] -0.007

UBR3 isoform 4 (UniProt Q6ZT12)
active: [2] -0.43
inactive: [1] -0.011 | [3] 0.023 | [4] -0.005 | [5] -0.003

TXNIP (UniProt Q9H3M7)
inactive: [1] -0.076 | [3] 0.04 | [4] -0.051 | [5] 0.024
active: [2] -0.399

TXN (UniProt P10599)
inactive: [1] -0.013 | [2] -0.027 | [3] 0.002 | [4] 0.027 | [5] -0.02

TTPAL (UniProt Q9BTX7)
inactive: [1] 0.034 | [2] 0.057 | [3] 0.026 | [4] -0.001 | [5] 0

TUBE1 (UniProt Q9UJT0)
inactive: [1] 0.024 | [3] -0.049 | [4] -0.036 | [5] -0.027
active: [2] -0.264

UBE3C (UniProt Q15386)
active: [2] -0.479
inactive: [1] -0.009 | [3] -0.001 | [4] 0 | [5] 0.05

TXNL4A (UniProt P83876)
inactive: [1] 0.023 | [2] 0.118 | [3] -0.011 | [4] -0.045 | [5] -0.02

TWF1 (UniProt Q12792)
inactive: [1] 0.036 | [2] 0.023 | [3] 0.132 | [4] -0.064 | [5] 0.002

UBA6
inactive: [1] -0.005 | [2] -0.175 | [3] 0.015 | [4] -0.006 | [5] 0.009

Pulled one by one from above, two records:
UBXN6 (UniProt Q9BZV1)
active: [2] -0.28
inactive: [1] 0.04 | [3] 0.018 | [4] -0.026 | [5] -0.009

UBXN4 (UniProt Q92575)
inactive: [1] 0.036 | [2] -0.124 | [3] 0.024 | [4] -0.021 | [5] -0.117

(further entries)

UCHL3 (UniProt P15374)
inactive: [1] -0.07 | [2] 0.024 | [3] 0.019 | [4] -0.032 | [5] -0.052

TYW1 (UniProt Q9NV66)
inactive: [1] 0.096 | [2] 0.024 | [3] -0.045 | [4] 0.053 | [5] -0.306

UBE2E1 (UniProt P51965)
inactive: [1] -0.089 | [2] 0.064 | [3] 0.035 | [4] -0.013 | [5] 0.037

TUBB3 (UniProt Q13509)
inactive: [1] -0.012 | [3] 0.04 | [4] 0.006 | [5] -0.002
active: [2] -0.688
